Laboratory results reported in patent publication US20190300857A1, “UNDIFFERENTIATED STEM CELL-REMOVING AGENT, AND METHOD FOR REMOVING UNDIFFERENTIATED STEM CELLS” (KEIO UNIVERSITY, priority 2016, published 2019).
At least one compound was matched to its structure with a doubt left.

Tested on: 253G4 cells
Assay: Culture of undifferentiated stem cell line in Simvastatin-containing medium, ALP staining
Assay type: cell-based, human
Conditions: Simvastatin 0, 0.125, 0.25, 0.5, 1, 2 μM, 72 hours, FIG. 12

Compound: CCC(C)(C)C(=O)O[C@H]1C[C@@H](C)C=C2C=C[C@H](C)[C@H](CC[C@@H]3C[C@@H](O)CC(=O)O3)[C@H]21 [Simvastatin]
- cell death of undifferentiated stem cells (ALP staining): cell death of each undifferentiated stem cell was also induced in a Simvastatin concentration-dependent manner
